Assay results reported in paper doi:10.1101/2020.01.30.925537.
No constants are given. Whether binding was seen depends on the method and setting. Binding seen in cells or lysates may run through a third protein. For some assays here: A result given as binding can be weak or reduced; the word gives no strength.

Experiments:
[1] = target: Csmd2-15x NPxY mutant (FENPMY mutated to FEAAAA) (mouse); experiment: co-IP
[2] = target: Csmd2-15x wild-type (3xFLAG-tagged truncated Csmd2) (mouse); experiment: co-IP

binding [1]: no binding
binding [2]: binds
B1: Dab1 (protein, UniProt P97318 1-588)
chain: MSTETELQVAVKTSAKKDSRKKGQDRSEATLIKRFKGEGVRYKAKLIGIDEVSAARGDKLCQDSMMKLKGVVAGARSKGEHKQKIFLTISFGGIKIFDEKTGALQHHHAVHEISYIAKDITDHRAFGYVCGKEGNHRFVAIKTAQAAEPVILDLRDLFQLIYELKQREELEKKAQKDKQCEQAVYQTILEEDVEDPVYQYIVFEAGHEPIRDPETEENIYQVPTSQKKEGVYDVPKSQPNSQPLEDFESRFAAATPNRNLSMDFDELLEATKVSAVTQLELFGDMSTPPDITSPPTPATPGDAFLPSSSQTLPGSADVFGSMSFGTAAVPSGYVAMGAVLPSFWGQQPLVQQQIAMGAQPPVAQVIPGAQPIAWGQPGLFPATQQAWPTVAGQFPPAAFMPTQTVMPLAAAMFQGPLTPLATVPGTNDSARSSPQSDKPRQKMGKESFKDFQMVQPPPVPSRKPDQPSLTCTSEAFSSYFNKVGVAQDTDDCDDFDISQLNLTPVTSTTPSTNSPPTPAPRQSSPSKSSASHVSDPTADDIFEEGFESPSKSEEQEAPDGSQASSTSDPFGEPSGEPSGDNISPQDGS
